According to the supplement of paper PMC3334620:
Whole data set: some 33,000 sequences, median “E-score (-0.5 to 0.5)” near -0.0059, cut for the highest 2% near 0.26. This is one part of the list.

Each sequence was assayed against T1, Cin5 (UniProt P40917) (assay: PBM E-score (8-mer binding enrichment) (E-score (-0.5 to 0.5)); higher = stronger / more preferred TF binding). Conditions: protein concentration: 100 nM; construct: GST-full length.
T1 sequence: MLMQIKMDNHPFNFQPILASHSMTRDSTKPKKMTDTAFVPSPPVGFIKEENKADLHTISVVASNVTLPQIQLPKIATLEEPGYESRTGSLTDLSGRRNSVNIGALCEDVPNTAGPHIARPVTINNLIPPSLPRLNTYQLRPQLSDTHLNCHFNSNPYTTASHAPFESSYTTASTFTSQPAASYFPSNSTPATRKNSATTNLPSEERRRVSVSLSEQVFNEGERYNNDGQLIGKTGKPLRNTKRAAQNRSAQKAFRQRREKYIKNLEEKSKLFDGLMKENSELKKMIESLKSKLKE
Summary of the method: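 Detection of bound protein used fluorescent anti-GST, with scans normalised by masliner. The proteins were GST-tagged yeast transcription factors applied at about 100-200 nM to universal all-10-mer Agilent arrays made double-stranded by primer extension. Each ungapped eight-base word, pooled with its reverse complement, was scored with an E-score from the Universal PBM Analysis Suite.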

Sequence	PBM E-score
GGGAGTGA	-0.0411
CAGCGCTA	0.0318
TACGGTAA	0.174
CCTGACCC	-0.117
CTAACCAA	0.0775
CAGCCGGC	0.0236
CAGGGTAC	-0.2
AACCCGAT	0.258
GCGCGCGC	0.306
GGCCCTAC	-0.296
GACCCCTC	-0.135
GACCACAC	-0.138
CCTGAAAG	-0.152
AGGCAACG	0.00342
GATTGGTA	0.125
CTTTGTGA	-0.0268
CCTTCTCA	-0.0495
CGGAAGTC	0.00808
AGCTTTGA	-0.00168
AAAGAGTA	-0.0619
ACCCGGCC	-0.326
AATATATT	0.363
CTTGAACC	-0.0425
TCACAGAA	-0.0304
GACAGCCA	-0.0393

Sequence	PBM E-score
CCATAAAA	0.0525
ACAATATG	0.154
ACATCACC	-0.0163
AACGCCTG	-0.197
CACTTACG	0.112
GCCAGTGA	-0.124
CGCTGAAC	-0.0208
AACGACGC	-0.148
ACTCTCCA	-0.067
ATCCCTTC	-0.0251
CGCCCAAA	-0.0271
CAACCCGC	0.0659
AATTCTTG	0.09
AGTCGCAC	-0.075
AGTGAGTG	-0.0867
CGATTCCC	0.18
AGCCGCCC	0.00886
CTATACTC	0.079
CTCGCGGC	-0.148
CGTGTAGC	-0.124
CCGAACAG	-0.076
ACTCTAAC	0.0515
GATGAATC	0.161
ACAAAATA	0.215
CTTTCGGA	-0.125

Sequence	PBM E-score
GAGCATTA	0.074
AGGAACGC	-0.131
ACGTGCAC	-0.0416
GCCTGAGC	-0.245
ACTACGGG	-0.0352
GTGGCAAA	-0.0607
ATGGGGGG	-0.365
CTCTCTAA	-0.265
CTGAGCCC	-0.174
ATCTCCTA	-0.115
AGGTCTCC	-0.229
CAATAGAA	0.00091
ACTACACC	0.0233
ACCCGATC	0.05
CACCTAGG	-0.103
AAGTGCAG	-0.204
ACAACTGT	-0.0602
CTAGCATC	-0.0819
CGGGACGC	-0.161
AAGAGCTC	-0.122
AGTCAATC	0.0732
AAGAGGGT	-0.136
AGTGCCTA	-0.229
ACTGCGAG	-0.0805
AATTTGGG	0.153

Sequence	PBM E-score
ATCCCAAT	-0.00753
AGAGCGCA	-0.168
AACTCGAC	0.142
ATGTATAG	0.14
AGTTCGTC	0.117
CACCGGCA	-0.0317
CTGCGTCA	-0.0381
CGCGTCCC	-0.0951
ATTGCCTA	-0.0655
ACTGGGCT	-0.14
GTTAAGGA	-0.0227
AGTAATTG	0.132
AGACTGAC	-0.0929
CTTGCCTA	-0.0846
GCACGCGC	-0.101
ACGAGATC	0.00964
AGGCTTCG	-0.176
ACGCTCCG	-0.0736
GATCTTAA	-0.0435
GACACGTC	-0.129
CTTCAAGA	-0.145
AGCGAGCG	-0.0261
GATATTAA	0.282
GATCTTAC	-0.0363
GCTGAAGC	-0.0411

Sequence	PBM E-score
CTCTCTTC	-0.158
AAGCTCAA	-0.0289
AACTTTAG	0.0677
CGAGGCGA	-0.0442
AGCCCTCC	-0.247
AATACACG	0.0305
CGACATGC	0.13
AGTTACGA	0.207
AGGCGGAC	-0.0887
GACTTGGA	-0.051
CGACGAAA	0.0766
AATTCCAT	0.152
CGGTCTGC	-0.184
ATTGTCCC	-0.0881
GATAACCC	-0.088
ACCCGGTG	-0.065
CAAATGGC	-0.037
ACGATGAA	0.0842
AAAGAAGA	0.0185
ACGGTGGC	-0.0662
CGTTGGAC	-0.283
CCGGTATC	-0.0551
AACGCAGG	-0.0727
ACCGTAGA	0.0226
GTACTTCA	0.279

Some of the entries so far, in CSV form.
Sequence,PBM E-score
GGGAGTGA,-0.0411
CCTGACCC,-0.117
CCTTCTCA,-0.0495
CGATTCCC,0.18

Looked up one by one from the entries so far:
Sequence	PBM E-score
ACTACACC	0.0233
AGTGCCTA	-0.229
ATGGGGGG	-0.365

4 entries from above, set out differently.
CTCTCTTC
  PBM E-score = -0.158
AGCCCTCC
  PBM E-score = -0.247
AGGCGGAC
  PBM E-score = -0.0887
ATTGTCCC
  PBM E-score = -0.0881

(listing goes on)

Sequence	PBM E-score
AACCACCG	-0.0288
ACGCGGAA	0.159
CTATCGAA	0.0827
GACATTTA	-0.0604
CATCATCA	0.0389
AGCACTCA	0.0608
CGTACACG	0.0779
AAGGGCGG	0.0085
ACGACACC	0.0663
CATGCAAA	0.0998
CATCTCAG	0.268
CAGCTGCG	-0.128
CATAACAC	0.118
CACCATAG	-0.153
CCAACCTA	-0.0695
GGCCAAAA	-0.0565
AGATGCGG	0.082
ACACTACT	0.14
CGAATCCC	-0.0727
AAATTCAA	0.131
CATCCTAA	0.0804
TGACTTAA	0.268
ACACAAGC	0.0481
CTTTGTAC	-0.0254
ATACCCAT	0.141

Sequence	PBM E-score
AACACGTG	0.17
ACTGCCAG	-0.067
GGTCTTAA	-0.326
CTAGGCCA	-0.0934
TCTTGAAA	0.182
CATGACAA	0.0097
GAGAATAC	0.161
CCCCGTCC	-0.297
AAGCCGCG	-0.0409
CCGCATGA	-0.136
ACGCCATA	0.134
CCTCTAGC	-0.167
CAGCCAGG	-0.173
ATAGTATC	0.174
AATGGACC	0.0615
ACCTGATG	-0.0591
AGCAAGTA	0.0575
ACATTTGC	0.14
ACAGAATG	0.0905
AAAACGCA	-0.00299
ACAACCCG	-0.0389
GGCCGCTA	-0.289
